The text below walks through data of patent US20060148746.

Chains of the proteins cited; added tags and fusions are not shown. Chains listed by the source or under a name are the forms on record and can include a tag or linker. Residues count along the entry.
UniProt P42260, 32-908: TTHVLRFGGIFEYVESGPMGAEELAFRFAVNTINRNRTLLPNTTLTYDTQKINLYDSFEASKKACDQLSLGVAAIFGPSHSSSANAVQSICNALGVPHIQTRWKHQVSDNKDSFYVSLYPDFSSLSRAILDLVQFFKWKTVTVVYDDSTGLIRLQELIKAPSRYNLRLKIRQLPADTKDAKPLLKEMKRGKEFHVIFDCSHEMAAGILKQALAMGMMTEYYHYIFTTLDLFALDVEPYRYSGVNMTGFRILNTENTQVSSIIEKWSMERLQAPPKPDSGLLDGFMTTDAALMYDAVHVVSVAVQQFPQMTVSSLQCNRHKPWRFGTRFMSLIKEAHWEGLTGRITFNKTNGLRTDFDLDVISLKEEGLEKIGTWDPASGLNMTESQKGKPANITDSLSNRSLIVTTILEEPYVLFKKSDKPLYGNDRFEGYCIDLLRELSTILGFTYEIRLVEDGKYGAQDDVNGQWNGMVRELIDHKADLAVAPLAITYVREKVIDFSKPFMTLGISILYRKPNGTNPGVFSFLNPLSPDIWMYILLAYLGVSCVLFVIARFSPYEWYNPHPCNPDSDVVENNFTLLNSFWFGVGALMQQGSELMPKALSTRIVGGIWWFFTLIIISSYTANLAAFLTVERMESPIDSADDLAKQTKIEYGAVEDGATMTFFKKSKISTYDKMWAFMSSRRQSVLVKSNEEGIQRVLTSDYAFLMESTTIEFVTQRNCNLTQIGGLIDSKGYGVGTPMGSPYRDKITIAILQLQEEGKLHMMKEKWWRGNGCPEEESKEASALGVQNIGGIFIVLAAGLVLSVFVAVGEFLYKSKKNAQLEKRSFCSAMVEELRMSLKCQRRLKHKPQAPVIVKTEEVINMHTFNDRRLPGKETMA
GluR4flip AMPA receptor (homomeric channel), one chain, as listed by the source: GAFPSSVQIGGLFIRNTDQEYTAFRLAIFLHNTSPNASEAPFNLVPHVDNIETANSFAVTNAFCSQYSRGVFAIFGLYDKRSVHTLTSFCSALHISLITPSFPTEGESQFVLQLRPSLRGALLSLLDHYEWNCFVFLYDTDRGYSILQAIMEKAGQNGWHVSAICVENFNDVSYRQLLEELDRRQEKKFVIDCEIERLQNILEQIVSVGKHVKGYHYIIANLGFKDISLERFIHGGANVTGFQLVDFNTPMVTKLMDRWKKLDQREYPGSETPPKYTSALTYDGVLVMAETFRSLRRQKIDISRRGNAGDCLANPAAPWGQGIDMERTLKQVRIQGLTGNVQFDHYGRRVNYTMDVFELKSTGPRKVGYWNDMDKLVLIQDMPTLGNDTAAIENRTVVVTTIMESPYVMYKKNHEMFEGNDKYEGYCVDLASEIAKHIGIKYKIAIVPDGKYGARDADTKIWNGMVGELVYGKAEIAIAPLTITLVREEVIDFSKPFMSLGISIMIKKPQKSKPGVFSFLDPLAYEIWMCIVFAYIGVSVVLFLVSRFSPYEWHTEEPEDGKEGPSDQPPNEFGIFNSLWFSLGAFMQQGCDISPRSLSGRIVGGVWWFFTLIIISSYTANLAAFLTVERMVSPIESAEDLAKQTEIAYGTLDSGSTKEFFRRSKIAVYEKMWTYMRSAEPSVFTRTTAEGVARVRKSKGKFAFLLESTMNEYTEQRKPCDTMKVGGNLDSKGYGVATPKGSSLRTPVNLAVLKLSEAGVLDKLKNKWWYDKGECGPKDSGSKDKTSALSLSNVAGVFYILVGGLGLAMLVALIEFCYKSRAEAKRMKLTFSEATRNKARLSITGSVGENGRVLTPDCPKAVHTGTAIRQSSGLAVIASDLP

Data set [1] addresses GluR6Q kainate receptor (homomeric channel) (UniProt P42260). Description: inhibition of the protein. To be noted: no inhibition at concentration tested; protein on the cell surface; protein details: expressed in HEK-293S cells; variant of original 98-nt aptamer; dose not given here.
For data set [2], the system named is GluR4flip AMPA receptor (homomeric channel). The data set is described as follows: inhibition of the protein. The note with it: both M1 and M2 required; improved specificity versus NBQX; protein on the cell surface; protein details: expressed in HEK-293S cells; variant of original 98-nt aptamer; dose not given here.

For some assays here: No signal at the amounts used counts as a negative.

“GGGCGAAUUCACUGCCAUCUAGGCAGUAACCAGGAGUUAGUAGGACAAGUUUCGUCC [AN57 (57-nt minimal aptamer, M1+M2 mixture)]”: the “functional effect of the aptamer” value in data set [1] was “not active”; in data set [2], “active”.
